Reference: PubChem BioAssay AID540256 (National Center for Advancing Translational Sciences (NCATS), 2011)
Hit rate of the full screen: of about 300,000 compounds, about 3,700 (1.2%) were called active. This list was built around the results that the source calls inconclusive (neither active nor inactive); the mix of calls is not that of the screen. Calls follow the shape of the full dose curve; tested in HEK293 cells. Where the call is inconclusive, the potency comes from a doubtful curve fit.

Assay: qHTS for Inhibitors of binding or entry into cells for Lassa Virus; also: nearly all actives have a fitted effect of over 50% in size
Conditions: Lassa virus pseudotype entry inhibition, cell reporter; series mostly up to 37.9 µM
Potency is read from the fitted curve at half-maximal effect.

| Structure (SMILES) | Potency |
| --- | --- |
| Cc1cccc(NCc2nc3ccccc3n2C)c1 | inconclusive: 13 µM [activator, partial curve] |
| CCc1cccc(OCCn2nc(C(=O)O)c3ccccc3c2=O)c1 | inconclusive: 35.5 µM [inhibitor, single point] |
| c1ccc(C2=Nn3c(nnc3-c3cc(-c4ccccc4)n[nH]3)SC2)cc1 | active: 15.8 µM |
| C/C(=N\NC(N)=S)C1(C)CC2(CC(C)(C)OC2=O)C(=O)O1 (stereo unspecified) | inconclusive: 4.47 µM [inhibitor, single point] |
| Cc1ccc(CNC(=O)c2cc(=O)c3cc(C)ccc3o2)cc1 | inconclusive: 3.55 µM [inhibitor, single point] |
| NNC(=O)c1ccc(OCC2CC(c3ccc(Cl)cc3)=NO2)cc1 (stereo unspecified) | inconclusive: 25.1 µM [inhibitor, single point] |
| CN1CCN(c2ncnc3c2cnn3-c2cccc(Cl)c2)CC1 | inconclusive: 17.8 µM [activator, partial curve, poor fit] |
| CN1CCN(C(=O)c2cc(-c3ccco3)on2)CC1 | inconclusive: 12.6 µM [activator, single point] |
| COc1ccc(C(Nc2ccccn2)c2ccc3ccc(C)nc3c2O)cc1C (stereo unspecified) | inconclusive: 20 µM [inhibitor, partial curve, poor fit] |
| O=C(NCc1ccco1)C1CCN(C(=O)c2cc3sccc3n2Cc2ccc(Cl)cc2)CC1 | inconclusive: 16.4 µM [inhibitor, single point] |
| Cn1c(=O)cc(SCC(=O)Nc2ccc3c(c2)OCO3)c2ccccc21 | inconclusive: 0.411 µM [inhibitor, full curve, poor fit] |
| O=C(Cn1c2ccc(F)cc2c2nc3n(c(=O)c21)CCS3)Nc1ccc(Cl)cc1F | inactive |
| CCOC(=O)C1(Cc2ccccc2)CCN(Cc2cn(CC(=O)OC)c3ccccc23)CC1 | inactive |
| CCc1cccc(NC(=O)COC(=O)c2cc([N+](=O)[O-])ccc2N2CCOCC2)c1 | inconclusive: 11.2 µM [inhibitor, partial curve, poor fit] |
| O=C(CN1CCC(C(=O)c2cccc(Cl)c2)CC1)Nc1cccc(C(=O)O)c1 | inactive |
| COc1ccc(-n2cc(CNCC3CC(=O)N(C4CC4)C3)c(-c3ccccc3Cl)n2)cc1 (stereo unspecified) | inconclusive: 20 µM [inhibitor, partial curve, poor fit] |
| CC(=O)Nc1ccccc1-c1nc2ccccc2n(C(C)C(=O)Nc2ccccc2C(F)(F)F)c1=O (stereo unspecified) | inactive |
| O=C(CN(C(=O)CCC(=O)Nc1nccs1)c1cccc(F)c1)NCCc1ccccc1 | inconclusive: 7.08 µM [inhibitor, full curve, poor fit] |
| CC(NC(=O)c1cc(S(=O)(=O)N2CCOCC2)ccc1N1CCCC1)c1ccc(Cl)c(Cl)c1 (stereo unspecified) | inconclusive: 0.794 µM [inhibitor, full curve] |
| COc1cccc(CNC(=O)c2ccc(-c3nc(CSc4ccccc4)c(C)o3)cc2)c1 | inactive |
| CCn1cc2nc(SCc3ccccc3Cl)n(Cc3ccc(OC)cc3)c(=O)c2n1 | inconclusive: 7.94 µM [inhibitor, partial curve, poor fit] |
| O=[N+]([O-])c1ccc(O)c(/C=N/n2cnc3ccccc32)c1 | inactive |

| Structure (SMILES) | Potency |
| --- | --- |
| COc1ccccc1-c1csc(Cc2nnc3n2CCCCC3)n1 | inactive |
| COc1cc(C(=O)N/N=C/c2ccc(OC(=O)c3ccccc3)c(OC)c2)ccc1O | inactive |
| C=CCSc1nnc(-c2ccncc2)n1-c1ccc(OCC)cc1 | inactive |
| O=C(NC1CCCC1)C(c1ccccc1)N(Cc1ccc(F)cc1)C(=O)c1csnn1 (stereo unspecified) | inconclusive: 35.5 µM [inhibitor, single point] |
| CC(C)CCOc1ccc(C(=O)NCC(c2cccs2)N2CCOCC2)cc1 (stereo unspecified) | inconclusive: 15.8 µM [inhibitor, partial curve, poor fit] |
| Cn1c(SCC(=O)NCc2ccc3c(c2)OCO3)nnc1-c1cc2ccccc2cc1O | inconclusive: 8.2 µM [inhibitor, partial curve] |
| CCn1c(C)c(C(C)=O)c(N2CCCC2)nc1=S | inconclusive: 23.1 µM [activator, single point] |
| COc1ccc(-c2cc3nc(-c4ccccc4)cc(C(F)(F)F)n3n2)cc1 | inconclusive: 15.8 µM [activator, single point] |
| COCCCNC(=O)Cn1c(=O)n(Cc2ccc(C(=O)NCc3ccc(C)cc3)cc2)c(=O)c2ccccc21 | inactive |
| Cc1ccccc1CN1CCCN(Cc2ccc(Cl)cc2)S1(=O)=O | inconclusive: 35.5 µM [inhibitor, single point] |
| COc1ccccc1C(=O)NC(=S)Nc1cccc2cc(O)ccc12 | inconclusive: 12.6 µM [inhibitor, partial curve, poor fit] |
| COc1ccc(OCC(O)Cn2c(=N)n(Cc3ccccc3)c3ccccc32)cc1 (stereo unspecified) | inconclusive: 23.1 µM [inhibitor, single point] |
| Cc1[nH]c2c(ccc3ccccc32)c1C1C(CCN)C1(C)C (stereo unspecified) | inconclusive: 18.3 µM [activator, partial curve, poor fit] |
| Cc1ccc(NC(=O)CSc2nc(C)c(Cc3ccccc3)c(=O)[nH]2)cc1 | inactive |
| O=C(Nc1cccnc1Cl)c1ccc2c(Cl)c3c(nc2c1)CCC3 | inconclusive: 6.31 µM [activator, partial curve, poor fit] |
| COC(=O)c1c(NC(=O)c2cc(=O)c3ccc(C)c(C)c3o2)sc2c1CCCC2 | inactive |
| O=C1CNC(c2ccccc2Cl)c2cc(Br)ccc2N1 (stereo unspecified) | inactive |
| Cc1c(Cl)cccc1NC(=O)N1CCC(CN2CCCC2)CC1 | inactive |
| COc1cccc(-n2nnc3c(sc4nc(C)cc(C)c43)c2=O)c1 | inconclusive: 15.8 µM [activator, single point] |
| COc1ccc(C2C(C#N)=C(N)N(c3sc4c(c3C#N)CCCC4)C3=C2C(=O)CC(C)(C)C3)cc1OC (stereo unspecified) | inconclusive: 29.1 µM [inhibitor, single point] |
| COc1cc(C(=O)O/N=C2/C=CC(=O)C(C)=C2C)cc(OC)c1OC | inactive |
| CC1=C(c2ccc(C)cc2)S(=O)(=O)N(Cc2ccc(C(=O)NCc3cccc(C)c3)cc2)C1=O | inconclusive: 35.5 µM [inhibitor, partial curve, poor fit] |

Three compounds drawn at random from the list so far:

| Structure (SMILES) | Potency |
| --- | --- |
| COc1ccccc1C(=O)NC(=S)Nc1cccc2cc(O)ccc12 | inconclusive: 12.6 µM [inhibitor, partial curve, poor fit] |
| COc1cccc(-n2nnc3c(sc4nc(C)cc(C)c43)c2=O)c1 | inconclusive: 15.8 µM [activator, single point] |
| COC(=O)c1c(NC(=O)c2cc(=O)c3ccc(C)c(C)c3o2)sc2c1CCCC2 | inactive |

Additional records:

| Structure (SMILES) | Potency |
| --- | --- |
| CC(=O)N1c2ccc(S(=O)(=O)N(C)Cc3ccco3)cc2CC1C (stereo unspecified) | inconclusive: 0.794 µM [activator, full curve, poor fit] |
| CCN(CC)c1ccc(C(=O)N/N=C(\C)c2cccc(OC)c2)cc1 | inconclusive: 35.5 µM [inhibitor, single point] |
| CCOc1ncccc1C(=O)NC(C)CCc1ccccc1 (stereo unspecified) | inconclusive: 1.26 µM [inhibitor, partial curve, poor fit] |
| COc1ccccc1CNS(=O)(=O)c1ccc2[nH]c3c(c2c1)CCCCC3 | inconclusive: 1.12 µM [activator, full curve, poor fit] |
| CCC(Sc1nc2ccccc2c2nc(CCc3c(C)n[nH]c3C)nn12)C(=O)Nc1ccc(F)cc1 (stereo unspecified) | inconclusive: 0.631 µM [activator, full curve, poor fit] |
| CCOC(=O)/C=C/C(=O)OCC(=O)Nc1cccc(Cl)c1Cl | inactive |
| COc1ccc(N2CCN(C(=O)c3cnc(N4CCCC4)nc3C)CC2)cc1 | inconclusive: 1.12 µM [activator, partial curve, poor fit] |
| Clc1ccc(-n2nnnc2-c2cnc(-c3ccccn3)nc2-c2cccs2)cc1 | inconclusive: 16.4 µM [inhibitor, partial curve, poor fit] |
| Cc1ccc(S(=O)(=O)Nc2ccc3c(c2)nc2n3CCN(Cc3ccccc3)C2)cc1 | inconclusive: 6.51 µM [inhibitor, partial curve, poor fit] |
| CCc1noc(C)c1C(=O)NCCc1c[nH]c2ccccc12 | inconclusive: 0.562 µM [activator, full curve, poor fit] |
| O=C(NC(=S)NCc1ccc(Cl)cc1)c1ccco1 | inconclusive: 35.5 µM [inhibitor, single point] |
| COc1ccc2c(c1)S(=O)(=O)c1ccccc1N2 | inactive |
| CCOc1ccc(NC(=O)c2oc3ccccc3c2NC(=O)Cc2ccc(F)cc2)cc1 | inactive |
| CC(C)c1ccc(CN2CCN(C(=O)CCl)CC2)cc1 | inconclusive: 20.6 µM [inhibitor, single point] |
| COc1ccc(O)c(/C=N/NC(=S)NCCc2ccccc2)c1 | inconclusive: 12.6 µM [inhibitor, single point] |
| CCCCn1c(N)c(N(CCOC)C(=O)c2ccc(N3CCCC3)c([N+](=O)[O-])c2)c(=O)[nH]c1=O | inconclusive: 0.1 µM [activator, full curve, poor fit] |
| COCCN(Cc1cc2cc(C)c(C)cc2nc1Cl)C(=O)Nc1ccccc1 | inactive |
| CC(C)c1ccccc1OCCCCCNCCO | inconclusive: 10.3 µM [inhibitor, partial curve, poor fit] |
| COc1ccc(OC)c2nc3c(C(=O)NCCN(C)C)cccc3nc12 | inconclusive: 7.08 µM [inhibitor, partial curve, poor fit] |
| O=C(Cn1ncc2c3ccccc3n(Cc3ccc(Cl)cc3)c2c1=O)N1CCCCCC1 | inconclusive: 17.8 µM [activator, single point] |
| O=C(Cc1ccc(F)cc1)NC1CC(=O)N(c2ccc3c(c2)OCCO3)C1 (stereo unspecified) | inactive |
| CCc1ccc(NC(=O)c2cc(S(=O)(=O)NC3CCCC3)ccc2F)cc1 | inconclusive: 35.5 µM [inhibitor, single point] |
